Assay results from US7863315B2, “2-indolinone derivatives as selective histone deacetylase inhibitors” (Shenzhen Chipscreen Biosciences, Ltd., priority 2008, dated 2011).

Tests used:
[1] = system: total HDAC enzyme (HeLa extract); assay: In vitro inhibition of total HDAC enzyme activity (HDAC Fluorimetric Assay/Drug Discovery Kit, BIOMOL); type: biochemical, human
Experimental: Measurement of in vitro inhibition of total HDAC enzyme activity:
The in vitro inhibition of total HDAC enzyme was determined by HDAC Fluorimetric Assay/Drug Discovery Kit (BIOMOL) according to manufacture's instruction. • 1. Add Assay buffer, diluted trichostatin A or test inhibitor to appropriate wells of the microtiter plate. Following table lists examples of various assay types and the additions required for each test.
• 2. Add diluted HeLa extract or other HDAC sample to all wells except those that are to be “No Enzyme Controls” (Blank). • 3. Allow diluted Fluor de LyS™ Substrate and the samples in the microtiter plate to equilibrate to assay temperature (25° C.). • 4. Initiate HDAC reactions by adding diluted substrate (25 μl) to each well and mixing thoroughly. • 5. Allow HDAC reactions to proceed for desired length of time and then stop them by addition of Fluor de Lys™ Developer (50 μl). Incubate plate at room temperature (25° C.) for 10-15 min. • 6. Read samples in a microtiter-plate reading fluorimeter capable of excitation at a wavelength in the range 350-380 nm and detection of emitted light in the range 440-460 nm.

[2] = target: T1, HDAC6 (α-tubulin acetylation) (Homo sapiens, UniProt Q9UBN7); assay: ELISA assay of acetylation of α-tubulin in HeLa cells; type: cell-based; conditions: M-HeLa, 24 hours
T1 construct: endogenous in cells; host or cells: HeLa
T1 sequence (Q9UBN7 1-1215): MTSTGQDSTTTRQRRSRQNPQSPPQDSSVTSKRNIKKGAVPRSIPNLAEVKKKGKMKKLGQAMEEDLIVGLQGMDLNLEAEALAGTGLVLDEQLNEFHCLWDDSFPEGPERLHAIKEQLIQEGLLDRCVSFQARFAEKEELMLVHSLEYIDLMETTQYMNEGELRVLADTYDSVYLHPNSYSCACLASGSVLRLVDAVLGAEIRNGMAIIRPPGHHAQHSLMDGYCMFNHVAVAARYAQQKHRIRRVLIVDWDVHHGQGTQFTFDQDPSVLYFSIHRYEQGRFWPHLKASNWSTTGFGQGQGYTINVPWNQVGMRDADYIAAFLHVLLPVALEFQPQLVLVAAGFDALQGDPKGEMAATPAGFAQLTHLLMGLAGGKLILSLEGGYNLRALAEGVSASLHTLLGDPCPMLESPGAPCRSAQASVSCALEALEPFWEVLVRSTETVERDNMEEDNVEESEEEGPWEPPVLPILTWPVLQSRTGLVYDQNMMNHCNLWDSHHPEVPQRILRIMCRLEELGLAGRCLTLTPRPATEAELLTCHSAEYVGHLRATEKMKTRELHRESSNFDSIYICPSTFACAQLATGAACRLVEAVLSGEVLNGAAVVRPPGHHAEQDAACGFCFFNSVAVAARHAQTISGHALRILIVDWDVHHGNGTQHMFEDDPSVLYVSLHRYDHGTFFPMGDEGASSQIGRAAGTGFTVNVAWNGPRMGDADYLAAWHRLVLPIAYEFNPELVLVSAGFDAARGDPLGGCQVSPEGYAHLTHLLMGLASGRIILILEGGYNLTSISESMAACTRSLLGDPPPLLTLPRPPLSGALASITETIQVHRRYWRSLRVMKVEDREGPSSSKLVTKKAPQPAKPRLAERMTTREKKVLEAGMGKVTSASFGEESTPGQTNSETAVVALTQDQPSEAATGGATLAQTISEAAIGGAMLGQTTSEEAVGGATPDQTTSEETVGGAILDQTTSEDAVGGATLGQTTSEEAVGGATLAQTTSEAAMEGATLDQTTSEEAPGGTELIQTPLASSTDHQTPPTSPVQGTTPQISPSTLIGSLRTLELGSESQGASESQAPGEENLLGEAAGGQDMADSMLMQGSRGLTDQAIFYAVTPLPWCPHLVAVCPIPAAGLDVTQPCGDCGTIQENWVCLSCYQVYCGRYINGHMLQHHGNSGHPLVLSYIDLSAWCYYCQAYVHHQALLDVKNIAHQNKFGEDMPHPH
Experimental: (§1) Measurement of acetylation activity in cells on substrates:
ELISA assay of acetylation of α-tubulin
(§2) This assay is used to measure in vivo inhibition of HDAC6 in a cytoblot assay. Materials and Reagent: • 1. 24-well tissue culture • 2. DMEM Medium containing 10% FBS • 3. 96-well white plate • 4. HeLa cell line • 5. M-PER Mammalian Protein Extraction Reagent (Pierce) • 6. Bradford assay reagent • 7. Anti-acetyl-tubulin (Upstate) • 8. HRP-labeled anti-mouse IgG (Upstate) • 9. Coating Buffer: 15 mM Na2CO3, 35 mM NaHCO3 (pH 9.6) • 10. 10×PBS: 0.58 M Na2HPO4, 0.17M NaH2PO4, 0.68M NaCl (pH 7.4) • 11. Wash Buffer:1×PBS containing 0.05% Tween-20 (PBST) • 12. Blocking Buffer:10 mg/ml bocine serum albumin (BSA) in PBS • 13. Antibody Dilution Buffer: 5 mg/ml BSA in PBST • 14. Enhanced chemiluminescence (ECL) (Amersham)
(§3) Procedure for performing the assay in 96-well plate: • 1. HeLa cells were seeded at a density of 60000 cells/500 μl/well in 24-well plate and incubated at 37° C. for 24 hours. • 2. Compounds were added and incubated for 24 hours at 37° C. • 3. Culture medium was removed, then washes the cells twice with ice-cold PBS. • 4. Add 100 μl/well of Protein Extraction Reagent and gently shake the mixture for 5 minutes. • 5. Collect the lysate to a 96-well plate respectively. Determine the concentration of protein by Bradford assay. • 6. […] Add 50 μl/well of ECL mixture, then read the plates on the plate reader.

lysine acetylation = assay: ELISA assay of acetylation of lysine in HeLa cells; type: cell-based; conditions: Homo sapiens, M-HeLa, 24 hours
Excerpt: as §1
ELISA Assay of Acetylation of Lysine
This assay is used to measure in vivo inhibition of HDAC6 in a cytoblot assay.
as §2, with “Materials” for “This assay is used to measure in vivo inhibition of HDAC6 in a cytoblot assay. Materials”, “Acetylated-lysine polyclonal Antibody (Cell Signaling)” for “Anti-acetyl-tubulin (Upstate)”, “anti-rabbit” for “anti-mouse”, “0.58M” for “0.58 M”
as §3, with “respectively.” for “respectively. Determine the concentration of protein by Bradford assay. • 6.”

Question: What does the source list for O=C(CCCCCCC(=O)Nc1ccccc1)NO [SAHA, suberoylanilide hydroxamic acid, reference compound]?
Answer: % of Inhibition on Total HDAC Enzyme at 30 μM [1]: 99%; fold induction at 10 µM [2]: 7.52; fold induction at 10 µM (lysine acetylation): 12.4
